# Data: patent US20120028887A1, “L[…] HIV-1” (priority 2009, published 2012)
# Not every detail of the peptide structures is certain; ends, links or a residue may be inferred. Residues, ends and D or L forms follow the SMILES beside them. *: point of attachment. Palmitoyl = CCCCCCCCCCCCCCCC(=O)*
# Tested on: Jurkat E6-1 cells and Jurkat HXBc2 cells expressing HIV-1 HXBc2 Rev and ENV proteins
# Assay type: cell-based
# Settings: cell-cell fusion assay, Table 3, N36 mutated peptides
row,Structure (SMILES),IC50 nM
1,"CCCCCCCCCCCCCCCC(=O)N[C@@H](CO)C(=O)NCC(=O)N[C@H](C(=O)N[C@H](C(=O)N[C@@H](CCC(N)=O)C(=O)N[C@@H](CCC(N)=O)C(=O)N[C@@H](CC(C)C)C(=O)N[C@@H](CC(N)=O)C(=O)N[C@@H](CC(N)=O)C(=O)N[C@@H](CCC(N)=O)C(=O)N[C@@H](CC(C)C)C(=O)N[C@@H](CCCNC(=N)N)C(=O)N[C@@H](C)C(=O)N[C@@H](CCC(=O)O)C(=O)N[C@@H](CCC(=O)O)C(=O)N[C@@H](C)C(=O)N[C@@H](CC(N)=O)C(=O)N[C@@H](CCC(N)=O)C(=O)N[C@@H](Cc1c[nH]cn1)C(=O)N[C@@H](CC(C)C)C(=O)N[C@@H](CCC(=O)O)C(=O)N[C@@H](CCC(N)=O)C(=O)N[C@@H](CC(C)C)C(=O)N[C@@H](CO)C(=O)N[C@H](C(=O)N[C@@H](Cc1c[nH]c2ccccc12)C(=O)NCC(=O)N[C@@H](CO)C(=O)N[C@@H](CCCCN)C(=O)N[C@@H](CCC(N)=O)C(=O)N[C@@H](CC(N)=O)C(=O)N[C@@H](CCC(N)=O)C(=O)N[C@@H](C)C(=O)N[C@@H](CCCNC(=N)N)C(=O)N[C@@H](CCCNC(=N)N)C(=O)N[C@@H](CC(C)C)C(=O)N[C@@H](CCCCN)C(N)=O)C(C)C)C(C)C)[C@@H](C)CC [C16-N36 MUTa,d] (Palmitoyl-SGIVQQLNNQLRAEEANQHLEQLSVWGSKQNQARRLK-NH2)",Not active
2,"CCCCCCCCCCCCCCCC(=O)NCCCC[C@H](NC(=O)[C@H](CC(C)C)NC(=O)[C@H](CCCNC(=N)N)NC(=O)[C@H](CCCNC(=N)N)NC(=O)[C@H](C)NC(=O)[C@H](CCC(N)=O)NC(=O)[C@H](CC(N)=O)NC(=O)[C@H](CCC(N)=O)NC(=O)[C@H](CCCCN)NC(=O)[C@H](CO)NC(=O)CNC(=O)[C@H](Cc1c[nH]c2ccccc12)NC(=O)[C@@H](NC(=O)[C@H](CO)NC(=O)[C@H](CC(C)C)NC(=O)[C@H](CCC(N)=O)NC(=O)[C@H](CCC(=O)O)NC(=O)[C@H](CC(C)C)NC(=O)[C@H](Cc1c[nH]cn1)NC(=O)[C@H](CCC(N)=O)NC(=O)[C@H](CC(N)=O)NC(=O)[C@H](C)NC(=O)[C@H](CCC(=O)O)NC(=O)[C@H](CCC(=O)O)NC(=O)[C@H](C)NC(=O)[C@H](CCCNC(=N)N)NC(=O)[C@H](CC(C)C)NC(=O)[C@H](CCC(N)=O)NC(=O)[C@H](CC(N)=O)NC(=O)[C@H](CC(N)=O)NC(=O)[C@H](CC(C)C)NC(=O)[C@H](CCC(N)=O)NC(=O)[C@H](CCC(N)=O)NC(=O)[C@@H](NC(=O)[C@@H](NC(=O)CNC(=O)[C@@H](N)CO)[C@@H](C)CC)C(C)C)C(C)C)C(N)=O [N36 MUTa,d-C16] (H-SGIVQQLNNQLRAEEANQHLEQLSVWGSKQNQARRLK(Palmitoyl)-NH2)",Not active
